Experimental data reported in PMC5028754.

Biological target: T1, Ddi1 UBL with an N-terminal His-tag (residues 1-80) (S. cerevisiae) (UniProt P40087)
T1 sequence (chain, 15N-labelled): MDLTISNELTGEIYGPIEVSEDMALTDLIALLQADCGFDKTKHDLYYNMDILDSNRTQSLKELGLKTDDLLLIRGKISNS
Experiment: NMR titration; 0.2 mM 15N-labeled Ddi1 UBL, 2D 15N/1H HSQC, two-fold molar excess (0.4 mM) of ligand added; 50 mM sodium phosphate, pH 7.4, 0.5% glycerol, 25 °C; minimal shift approach; both purified

**Q.** For Rpn10, which binding is on record?
**A.** no binding (tested: 0.4 mM (two-fold molar excess))

No constants are given. Whether binding was seen depends on the method and setting. Sequences can lack the tags named with a protein.
